PubChem BioAssay AID652272 – Drosophila RNAi Screening Center, 2013

- Purpose: 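Genes whose knock-down decreases or increases Hedgehog reporter output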 (primary screen)
- Cell system: Drosophila clone 8 (Cl8) cells
- Knock-down reagent: long dsRNA against Drosophila genes
- Measurement: 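Plate reader light from a firefly reporter under a ptc promoter fragment that responds to Hedgehog, with Renilla light as transfection reference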
- Reading the numbers: firefly Hh reporter signal: higher = more ptc reporter light; Renilla reference signal: higher = more Renilla control light
- Hit rule: 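Hit when the z-score averaged over two replicates is under -2 or over +3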
- Calls: active = hit: reporter lowered or raised; inactive = not a hit
The deposit covers about 21,000 reagents; shown is an unselected part of those with a known target gene and a result. Over the whole deposit, 503 (2.4%) are marked active. 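Raw plate light values, not normalised; calls rest on replicate z-scores that were not deposited; hits include reporter decreases as well as increases.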 Names joined by + are all predicted targets of the reagent. Not given: the amount of reagent, the time to read-out.

Cpsf100 (Cleavage and polyadenylation specificity factor 100) [SID104193938] — firefly Hh reporter signal, replicate 1: 70792; firefly Hh reporter signal, replicate 2: 1.30e5; Renilla reference signal, replicate 1: 1306; Renilla reference signal, replicate 2: 4148; activity call: inactive
CG15394 [SID104180200] — firefly Hh reporter signal, replicate 1: 85520; firefly Hh reporter signal, replicate 2: 54880; Renilla reference signal, replicate 1: 1992; Renilla reference signal, replicate 2: 1250; activity call: inactive
CecB (Cecropin B) [SID104196397] — firefly Hh reporter signal, replicate 1: 1.23e5; firefly Hh reporter signal, replicate 2: 1.20e5; Renilla reference signal, replicate 1: 2562; Renilla reference signal, replicate 2: 3785; activity call: inactive
Dora (Dorado) [SID104199406] — firefly Hh reporter signal, replicate 1: 49500; firefly Hh reporter signal, replicate 2: 1.57e5; Renilla reference signal, replicate 1: 1352; Renilla reference signal, replicate 2: 6922; activity call: inactive
Dora (Dorado) [SID104199573] — firefly Hh reporter signal, replicate 1: 1.14e5; firefly Hh reporter signal, replicate 2: 2.86e5; Renilla reference signal, replicate 1: 2620; Renilla reference signal, replicate 2: 13436; activity call: inactive
Dora (Dorado) [SID104199826] — firefly Hh reporter signal, replicate 1: 52810; firefly Hh reporter signal, replicate 2: 1.20e5; Renilla reference signal, replicate 1: 1593; Renilla reference signal, replicate 2: 6673; activity call: inactive
Dora (Dorado) [SID104199827] — firefly Hh reporter signal, replicate 1: 46386; firefly Hh reporter signal, replicate 2: 90304; Renilla reference signal, replicate 1: 1211; Renilla reference signal, replicate 2: 4560; activity call: inactive
Eip78C (Ecdysone-induced protein 78C) [SID104191656] — firefly Hh reporter signal, replicate 1: 50664; firefly Hh reporter signal, replicate 2: 44448; Renilla reference signal, replicate 1: 2304; Renilla reference signal, replicate 2: 1529; activity call: inactive
wde (windei) [SID104185747] — firefly Hh reporter signal, replicate 1: 88032; firefly Hh reporter signal, replicate 2: 51175; Renilla reference signal, replicate 1: 4656; Renilla reference signal, replicate 2: 3047; activity call: inactive
CG4363 [SID104184257] — firefly Hh reporter signal, replicate 1: 79243; firefly Hh reporter signal, replicate 2: 47884; Renilla reference signal, replicate 1: 2385; Renilla reference signal, replicate 2: 4869; activity call: inactive
CG34450 [SID104197614] — firefly Hh reporter signal, replicate 1: 1.06e5; firefly Hh reporter signal, replicate 2: 91474; Renilla reference signal, replicate 1: 2841; Renilla reference signal, replicate 2: 2048; activity call: inactive
CheA46a (Chemosensory protein A 46a) [SID104184976] — firefly Hh reporter signal, replicate 1: 1.03e5; firefly Hh reporter signal, replicate 2: 2.19e5; Renilla reference signal, replicate 1: 2928; Renilla reference signal, replicate 2: 9773; activity call: inactive
CG31510 [SID104193974] — firefly Hh reporter signal, replicate 1: 5.78e5; firefly Hh reporter signal, replicate 2: 82477; Renilla reference signal, replicate 1: 28573; Renilla reference signal, replicate 2: 2410; activity call: inactive
CG6055 [SID104182715] — firefly Hh reporter signal, replicate 1: 1.52e5; firefly Hh reporter signal, replicate 2: 66624; Renilla reference signal, replicate 1: 3815; Renilla reference signal, replicate 2: 6491; activity call: inactive
IFT57 (Intraflagellar transport 57) [SID104180512] — firefly Hh reporter signal, replicate 1: 1.58e5; firefly Hh reporter signal, replicate 2: 53781; Renilla reference signal, replicate 1: 4032; Renilla reference signal, replicate 2: 5696; activity call: inactive
l(2)k14505 (lethal (2) k14505) [SID104182898] — firefly Hh reporter signal, replicate 1: 1.05e5; firefly Hh reporter signal, replicate 2: 61036; Renilla reference signal, replicate 1: 4548; Renilla reference signal, replicate 2: 2752; activity call: inactive
T48 (Transcript 48) [SID104196670] — firefly Hh reporter signal, replicate 1: 96404; firefly Hh reporter signal, replicate 2: 94288; Renilla reference signal, replicate 1: 3192; Renilla reference signal, replicate 2: 2592; activity call: inactive
CG9951 [SID104190897] — firefly Hh reporter signal, replicate 1: 1.15e5; firefly Hh reporter signal, replicate 2: 55778; Renilla reference signal, replicate 1: 4349; Renilla reference signal, replicate 2: 2240; activity call: inactive
CG13133 [SID104182022] — firefly Hh reporter signal, replicate 1: 1.17e5; firefly Hh reporter signal, replicate 2: 67233; Renilla reference signal, replicate 1: 3011; Renilla reference signal, replicate 2: 6761; activity call: inactive
Psc (Posterior sex combs) [SID104187310] — firefly Hh reporter signal, replicate 1: 99316; firefly Hh reporter signal, replicate 2: 55824; Renilla reference signal, replicate 1: 2323; Renilla reference signal, replicate 2: 4442; activity call: inactive
Ppn (Papilin) [SID104195120] — firefly Hh reporter signal, replicate 1: 1.10e5; firefly Hh reporter signal, replicate 2: 1.40e5; Renilla reference signal, replicate 1: 2850; Renilla reference signal, replicate 2: 4859; activity call: inactive
trbd (trabid) [SID104196286] — firefly Hh reporter signal, replicate 1: 78571; firefly Hh reporter signal, replicate 2: 50076; Renilla reference signal, replicate 1: 3991; Renilla reference signal, replicate 2: 2491; activity call: inactive
CG42570 [SID104189183] — firefly Hh reporter signal, replicate 1: 1.89e5; Renilla reference signal, replicate 1: 3524; activity call: inactive
LysD + LysC (retired record) [SID104188466] — firefly Hh reporter signal, replicate 1: 62325; firefly Hh reporter signal, replicate 2: 53600; Renilla reference signal, replicate 1: 2336; Renilla reference signal, replicate 2: 4256; activity call: inactive
Cnep1r1 (CTD nuclear envelope phosphatase 1 regulatory subunit 1) [SID104200412] — firefly Hh reporter signal, replicate 1: 95062; firefly Hh reporter signal, replicate 2: 2.38e5; Renilla reference signal, replicate 1: 3501; Renilla reference signal, replicate 2: 9239; activity call: inactive
Inx6 (Innexin 6) [SID104200371] — firefly Hh reporter signal, replicate 1: 68549; firefly Hh reporter signal, replicate 2: 1.41e5; Renilla reference signal, replicate 1: 985; Renilla reference signal, replicate 2: 6040; activity call: inactive
sbm (sobremesa) [SID104199977] — firefly Hh reporter signal, replicate 1: 86992; firefly Hh reporter signal, replicate 2: 1.67e5; Renilla reference signal, replicate 1: 3088; Renilla reference signal, replicate 2: 6566; activity call: inactive
